Source: article PMC3025910
Results are given in words; binding and its absence hold for the method and conditions named. Sequences can lack the tags named with a protein.

Target: T1, Mycobacterium tuberculosis nicotinamidase/pyrazinamidase (PncA), wild type (Mycobacterium tuberculosis H37Rv), I6XD65
T1 chain: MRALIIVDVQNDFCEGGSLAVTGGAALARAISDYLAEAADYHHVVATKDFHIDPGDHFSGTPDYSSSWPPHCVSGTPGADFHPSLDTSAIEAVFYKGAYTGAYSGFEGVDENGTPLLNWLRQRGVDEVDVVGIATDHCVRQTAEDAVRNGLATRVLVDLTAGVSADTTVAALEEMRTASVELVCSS
Test: SEC; both purified
Details: remark: other sources report otherwise

B1: Mycobacterium tuberculosis nicotinamidase/pyrazinamidase (PncA), wild type, I6XD65 1-186 (enzyme)
chain: T1 chain
  binding: no binding
